The values below come from patent US12264163B2, “Compounds and methods for treating fibrotic pathologies” (Mayo Foundation for Medical Education and Research, priority 2019, dated 2025).

The subject of test [1] is YAP/TAZ. Briefly: YAP/TAZ nuclear localization in IPF patient-derived lung fibroblasts treated with dopaminergic agonists. Type of test: cell-based, human. The following applies: 10 μM, 2 hours. The procedure:
IPF patient-derived lung fibroblasts cells treated 2 hours prior to fixation with diverse dopaminergic agonists (10 μM). N=4 different patient samples. % nuclear localization of YAP/TAZ was determined using automated imaging software. Scale bar represents 100 μm.
(§1) Media was then exchanged for the indicated conditions for each experiment. […] Cells or tissue sections were incubated overnight with mouse monoclonal antibody against αSMA (Sigma-Aldrich F3777), and/or a rabbit monoclonal antibody against YAP/TAZ (Cell Signaling D24E4) diluted 1:200 in PBS with 1% BSA. Cells were then washed and exposed to flourescence-conjugated secondary antibodies (Invitrogen) diluted 1:1000 and DAPI (Thermo Fisher Scientific). Images were taken with a Cytation5 (BioTek) microscope. For scoring αSMA positive cells (FIG. 12), an observer blinded to the treatment conditions counted αSMA-positive cells using a visual threshold for bright fibrous staining; a minimum of 200 cells was counted for each condition. YAP/TAZ localization was quantified (FIGS. 6-10, 24-26, and 29-30) using Gen5 (Biotek) software. Images were taken at 4× magnification of both DAPI and YAP/TAZ staining. […] Quantification of double positive (YAP/TAZ and αSMA) cells from lung tissue sections (FIG. 17-21) was performed similarly; however separate thresholds were established for both YAP/TAZ and αSMA. A minimum of 4000 cells was quantified for each mouse.

For test [2], the system named is αSMA. Briefly: αSMA intensity (fibroblast activation) in IPF patient-derived lung fibroblasts + TGFβ, dopaminergic agonist library. Type of test: cell-based, human. Particulars: 1 μM + TGFβ, 72 hours. The procedure: as §1

Turning to `CCCN1CCC[C@@H]2Cc3n[nH]cc3C[C@H]21.Cl` [(−)-Quinpirole•HCl, (−)-Quinpirole], the “Nuclear localization (% of total cells)” value in test [1] (IPF-1 patient fibroblasts) was 80.12 % of total cells; in test [1] (IPF-2 patient fibroblasts), 73.15 % of total cells; in test [1] (IPF-3 patient fibroblasts), 80.54 % of total cells; in test [1] (IPF-4 patient fibroblasts), 68.54 % of total cells. The “αSMA intensity (% of DMSO control)” value in test [2] (IPF-1 patient fibroblasts) was 84.61 % of DMSO control; in test [2] (IPF-2 patient fibroblasts) it was 67.1295 % of DMSO control; in test [2] (IPF-3 patient fibroblasts), 85.41 % of DMSO control; in test [2] (IPF-4 patient fibroblasts), 95.1307 % of DMSO control.
